From ChEMBL document CHEMBL3988442, “University of Dundee, Small-Polar-MMV Screening Library” (2021).

Chains of the proteins cited; added tags and fusions are not shown.
UniProt I6X8D2, whole entry: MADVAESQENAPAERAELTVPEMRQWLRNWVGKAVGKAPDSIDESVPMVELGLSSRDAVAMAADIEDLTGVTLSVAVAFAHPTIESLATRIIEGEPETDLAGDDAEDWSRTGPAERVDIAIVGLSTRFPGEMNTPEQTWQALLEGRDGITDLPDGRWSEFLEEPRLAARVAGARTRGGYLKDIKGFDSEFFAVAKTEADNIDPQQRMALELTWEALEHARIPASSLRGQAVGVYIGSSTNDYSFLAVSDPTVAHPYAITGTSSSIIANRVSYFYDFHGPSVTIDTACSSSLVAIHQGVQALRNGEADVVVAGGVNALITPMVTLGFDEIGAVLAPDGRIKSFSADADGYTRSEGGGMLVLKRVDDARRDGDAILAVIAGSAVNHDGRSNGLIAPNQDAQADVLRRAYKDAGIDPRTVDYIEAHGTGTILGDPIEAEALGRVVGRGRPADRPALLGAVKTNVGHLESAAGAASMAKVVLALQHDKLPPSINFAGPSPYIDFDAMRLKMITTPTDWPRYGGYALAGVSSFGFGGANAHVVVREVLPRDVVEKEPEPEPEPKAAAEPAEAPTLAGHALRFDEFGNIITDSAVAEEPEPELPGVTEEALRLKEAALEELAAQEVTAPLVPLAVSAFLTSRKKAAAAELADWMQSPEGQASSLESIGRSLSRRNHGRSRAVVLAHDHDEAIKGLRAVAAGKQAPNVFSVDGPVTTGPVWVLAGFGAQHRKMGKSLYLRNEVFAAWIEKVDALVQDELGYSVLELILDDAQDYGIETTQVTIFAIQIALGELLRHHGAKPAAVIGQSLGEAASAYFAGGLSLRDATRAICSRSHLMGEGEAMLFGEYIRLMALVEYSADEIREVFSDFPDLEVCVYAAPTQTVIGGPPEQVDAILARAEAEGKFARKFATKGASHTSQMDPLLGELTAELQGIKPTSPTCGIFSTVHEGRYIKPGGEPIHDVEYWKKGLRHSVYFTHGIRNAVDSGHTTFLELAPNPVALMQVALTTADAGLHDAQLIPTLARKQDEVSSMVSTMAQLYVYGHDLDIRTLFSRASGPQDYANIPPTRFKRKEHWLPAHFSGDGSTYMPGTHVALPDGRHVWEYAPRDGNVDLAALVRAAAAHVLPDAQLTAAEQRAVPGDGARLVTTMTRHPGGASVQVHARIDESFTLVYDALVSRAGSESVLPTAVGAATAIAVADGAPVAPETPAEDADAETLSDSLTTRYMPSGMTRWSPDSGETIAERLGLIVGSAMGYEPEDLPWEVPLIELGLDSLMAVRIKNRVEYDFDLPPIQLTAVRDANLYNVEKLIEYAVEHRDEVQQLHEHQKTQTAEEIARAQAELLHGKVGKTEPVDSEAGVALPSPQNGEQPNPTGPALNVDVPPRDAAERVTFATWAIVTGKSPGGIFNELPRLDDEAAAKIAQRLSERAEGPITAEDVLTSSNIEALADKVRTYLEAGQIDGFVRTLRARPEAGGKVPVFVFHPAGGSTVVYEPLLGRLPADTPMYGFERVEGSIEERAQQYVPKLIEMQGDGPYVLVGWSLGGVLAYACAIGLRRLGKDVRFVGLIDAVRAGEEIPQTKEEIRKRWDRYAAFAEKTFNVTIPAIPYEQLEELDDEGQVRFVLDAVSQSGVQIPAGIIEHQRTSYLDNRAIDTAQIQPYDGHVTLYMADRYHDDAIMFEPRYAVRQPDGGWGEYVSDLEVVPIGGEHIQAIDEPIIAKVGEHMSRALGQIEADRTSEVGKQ
UniProt P9WNZ1, whole entry: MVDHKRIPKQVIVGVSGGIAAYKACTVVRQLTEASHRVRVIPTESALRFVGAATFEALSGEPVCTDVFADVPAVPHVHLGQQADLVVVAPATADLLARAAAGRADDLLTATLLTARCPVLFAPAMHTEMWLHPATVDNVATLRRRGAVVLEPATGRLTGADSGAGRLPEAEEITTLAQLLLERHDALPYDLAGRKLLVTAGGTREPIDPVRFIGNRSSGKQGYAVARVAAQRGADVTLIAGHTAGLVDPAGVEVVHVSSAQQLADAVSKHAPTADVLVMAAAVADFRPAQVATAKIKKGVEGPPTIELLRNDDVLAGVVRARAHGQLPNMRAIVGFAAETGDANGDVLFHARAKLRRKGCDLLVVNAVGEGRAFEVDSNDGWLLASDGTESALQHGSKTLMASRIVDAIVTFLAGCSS
UniProt P9WPC5, whole entry: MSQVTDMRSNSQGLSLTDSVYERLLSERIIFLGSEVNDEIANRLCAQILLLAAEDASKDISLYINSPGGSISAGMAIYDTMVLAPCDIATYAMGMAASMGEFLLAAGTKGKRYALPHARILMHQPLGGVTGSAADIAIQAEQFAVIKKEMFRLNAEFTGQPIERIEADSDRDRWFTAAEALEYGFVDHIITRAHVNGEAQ
UniProt P9WPC3, whole entry partner: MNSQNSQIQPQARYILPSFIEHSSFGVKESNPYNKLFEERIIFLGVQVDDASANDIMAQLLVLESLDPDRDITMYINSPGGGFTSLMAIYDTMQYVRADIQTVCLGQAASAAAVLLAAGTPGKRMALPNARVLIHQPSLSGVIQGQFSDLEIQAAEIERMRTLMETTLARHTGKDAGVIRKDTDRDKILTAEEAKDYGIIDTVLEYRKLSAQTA
UniProt P9WFT3, whole entry: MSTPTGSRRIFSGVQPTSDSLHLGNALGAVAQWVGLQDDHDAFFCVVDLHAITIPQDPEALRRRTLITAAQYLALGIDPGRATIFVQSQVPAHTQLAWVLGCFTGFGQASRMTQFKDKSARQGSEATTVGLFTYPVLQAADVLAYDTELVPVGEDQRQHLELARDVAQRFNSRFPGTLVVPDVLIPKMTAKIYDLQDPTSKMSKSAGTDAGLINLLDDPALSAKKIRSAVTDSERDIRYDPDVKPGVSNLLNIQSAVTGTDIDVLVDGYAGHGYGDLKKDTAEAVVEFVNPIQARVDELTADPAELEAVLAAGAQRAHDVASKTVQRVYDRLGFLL

Results are given as percent effect.
The controls that fix the scale are not given in the record; negative values are as filed.
Compounds were drawn at random from those tested, without regard to their results.
Two or more numbers in one place are separate tests of the same structure; such repeats can differ widely.
A dash means the value is not listed here; it may have been measured.

Pks13 thioesterase: 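Polyketide synthase Pks13, Mycobacterium tuberculosis (UniProt I6X8D2). Enzyme assay of the thioesterase domain of polyketide synthase 13; the read-out is not stated. Concentration: 30 µM. The record gives no direction; the compounds picked for IC50 retests had high values, so higher reads as stronger inhibition. Size under these conditions: about 67,000 compounds, about 300 of them at 50% or above in at least one test.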
Toxoplasma: 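Assay of Toxoplasma gondii numbers, read through their beta-galactosidase reporter with a colour substrate. Compounds at 10 µM. Higher reads as fewer parasites (inferred from which compounds were picked for retests). About 67,000 compounds were tested under these conditions; 0.38% (about 260) showed 50% or more at least once.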
CoaBC: 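Coenzyme A biosynthesis protein CoaBC, Mycobacterium tuberculosis (UniProt P9WNZ1). Enzyme assay of CoaBC with a phosphate dye (Biomol Green) read at 650 nm. Compounds at 30 µM. Direction is inferred from only a few compounds that gave an IC50; most scored high, so higher reads as stronger inhibition. Most strong results did not repeat in a second test. About 67,000 compounds were tested under these conditions; 0.06% (about 40) showed 50% or more at least once.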
ClpP1P2: 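ClpP1P2, Mycobacterium tuberculosis (UniProt P9WPC5 and UniProt P9WPC3). Protease assay of ClpP1P2, read by the AMC dye that it sets free. Concentration: 50 µM. Direction is inferred from only a few compounds that gave an IC50; most scored high, so higher reads as stronger inhibition. Most other retested compounds had strongly negative values. Size under these conditions: about 69,000 compounds, about 10 of them at 50% or above in at least one test.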
Leishmania in macrophages: 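Cell assay of Leishmania donovani living inside macrophages; the read-out is not stated. Tested at 30 µM. Direction is inferred from retests: higher values go with stronger inhibition. Size under these conditions: about 69,000 compounds, about 1,000 of them at 50% or above in at least one test.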
MtTrpRS: 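Tryptophan-tRNA ligase, Mycobacterium tuberculosis (UniProt P9WFT3). Enzyme assay of tryptophanyl-tRNA synthetase; the read-out is not stated. Compounds at 10 µM. Higher most likely means stronger inhibition; the record gives no direction and few retests gave an IC50. Size under these conditions: about 65,000 compounds, about 64 of them at 50% or above in at least one test.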

For [H][C@@]12CCN(C3CCOCC3)C[C@]1([H])O[C@H](C(=O)N1CCOCC1)C2 the result was Toxoplasma: 8.244%; Leishmania in macrophages: 9.764%.
For CC(C)N1CCC(C(=O)N2CCc3c(nc(CC4CC4)[nH]c3=O)C2)CC1 the result was Pks13 thioesterase: -13.85%; Toxoplasma: 10.18%; CoaBC: 5.291% and 20.78%; ClpP1P2: -5.843%; Leishmania in macrophages: 17.61%; MtTrpRS: 2.832%.
For CCc1nc(-c2cncnc2C2CCCNC2)no1 (stereo not given) the result was Pks13 thioesterase: 3.806%; CoaBC: -5.672%; ClpP1P2: 4.94%; MtTrpRS: -0.3958%.
For COc1ccc(OC)c(C2CCN(C(=O)C3CCOCC3)C2)c1 (stereo not given) the result was Pks13 thioesterase: -0.1808%; Toxoplasma: -4.875%; CoaBC: 2.419%; ClpP1P2: -7.153%; Leishmania in macrophages: 6.362%; MtTrpRS: -6.965%.
For O=C(O)C(F)(F)F.O=C(O)C(F)(F)F.[H][C@@]12CN(Cc3ccccn3)C[C@]1([H])C(=O)N(c1cnn(C)c1)C2 the result was Toxoplasma: 15.2%; Leishmania in macrophages: 6.799%.
For CN1CC(=O)N(c2cccc(F)c2)CC12CCN(CC1CC1)C2 (stereo not given) the result was Pks13 thioesterase: -4.311%; CoaBC: -1.486%; ClpP1P2: 0.2656%; MtTrpRS: -1.926%.
For CCCOC1CCCN(C(=O)c2csc(S(N)(=O)=O)c2)C1 (stereo not given) the result was Pks13 thioesterase: 2.49%; Toxoplasma: -10.37%; CoaBC: 9.89%; ClpP1P2: 0.3605%; Leishmania in macrophages: -19.29%; MtTrpRS: 3.183%.
For CCCn1cc(C(=O)N2CCCC2(C)c2nc(C)cc(N)n2)cn1 (stereo not given) the result was Pks13 thioesterase: 3.331%; Toxoplasma: 10.59%; CoaBC: 0%; ClpP1P2: -37.35%; Leishmania in macrophages: 36.46%; MtTrpRS: 0.8587%.
For O=C1NCC2(CCN(C(=O)c3ccc4c(c3)CCCO4)CC2)O1 the result was Pks13 thioesterase: -28.72%; Toxoplasma: 3.19%; CoaBC: 11.07%; ClpP1P2: -0.8107%; Leishmania in macrophages: 12.33%; MtTrpRS: -1.21%.
For CCOC(=O)c1c(NC(=O)CN2CCN(C(C)=O)CC2)sc2c1CCC2 the result was Pks13 thioesterase: -31.72%; Toxoplasma: -0.2514%; CoaBC: 1.754%; ClpP1P2: -4.381%; Leishmania in macrophages: -11%; MtTrpRS: -7.097%.
For Cl.NCC1CCCCN1C(=O)Cc1ccc(F)c(F)c1 (stereo not given) the result was Toxoplasma: -0.2674%; Leishmania in macrophages: 7.992%.
For O=C1c2cnc(N3CCCC3)nc2CN1C1CCS(=O)(=O)C1 (stereo not given) the result was Pks13 thioesterase: -16.35%; Toxoplasma: 11.99%; CoaBC: -1.493%; ClpP1P2: -1.8%; Leishmania in macrophages: 3.098%; MtTrpRS: 1.72%.
For C/C=C(\C)CN1C[C@H](NC(=O)c2cnc(O)cn2)C[C@H]1C(=O)NCC the result was Pks13 thioesterase: -17.21%; Toxoplasma: -1.712%; ClpP1P2: 2.76%; Leishmania in macrophages: 0.7856%; MtTrpRS: 5.573%.
For CN(CCO)C(=O)Nc1ccn(-c2cccc(C(F)(F)F)c2)n1 the result was Pks13 thioesterase: -21.41%; Toxoplasma: -34.53%; CoaBC: 1.138%; ClpP1P2: 0.2611%; Leishmania in macrophages: 13.55%; MtTrpRS: -1.283%.
For Cc1csc(CCNCc2cnc3c(c2)c(C)nn3C)n1.Cl the result was Toxoplasma: -1.458%; Leishmania in macrophages: -4.85%.
For CCn1ccc(NS(=O)(=O)c2cccc(COC)c2)n1 the result was Pks13 thioesterase: -12.39%; Toxoplasma: 12.12%; CoaBC: 9.759%; ClpP1P2: 1.391%; Leishmania in macrophages: 39.3%; MtTrpRS: 2.294%.
For [H][C@]12CN(C(=O)c3cnn(C)c3)CC[C@@]1(O)CCN(C(=O)C1CCC1)C2 the result was Toxoplasma: -8.784%; Leishmania in macrophages: -32.86%.
For [H][C@]12CC[C@](O)(c3ccccc3F)[C@@]1([H])CN(C(=O)c1cc(C3CC3)n[nH]1)C2 the result was Toxoplasma: 14.12%; Leishmania in macrophages: -25.73%.
For COc1ccc(OC)c(CNCc2ccnc(N3CCCCC3)c2)c1 the result was Pks13 thioesterase: -7.043%; Toxoplasma: -0.4695%; CoaBC: 6.842%; ClpP1P2: -16.73%; Leishmania in macrophages: -6.481%; MtTrpRS: -4.679%.
For Cc1c[nH]nc1C1CCCN1Cc1nccn1C.O=CO (stereo not given) the result was Toxoplasma: -3.184%; Leishmania in macrophages: 12.5%.
For c1ccc(CNC2CCc3ncnn3C2)nc1 (stereo not given) the result was Pks13 thioesterase: -6.881%; Toxoplasma: -25.79%; CoaBC: -1.813%; ClpP1P2: 20.52%; Leishmania in macrophages: 17.8%; MtTrpRS: -4.38%.
For CCOCC(=O)NCC(Cc1cccc(F)c1)N1CCCCC1=O (stereo not given) the result was Pks13 thioesterase: 5.05%; Toxoplasma: -6.552%; CoaBC: 1.272%; ClpP1P2: -21.84%; Leishmania in macrophages: -9.922% and -30.59%; MtTrpRS: 1.895%.
For CCS(=O)(=O)c1ncc(CN(C)Cc2ccccc2Cl)n1CCOC the result was Pks13 thioesterase: 8.051%; Toxoplasma: -27.66%; CoaBC: -1.086%; ClpP1P2: -0.2214%; Leishmania in macrophages: 15.73%; MtTrpRS: -2.826%.
For COc1ccc(Oc2ncccc2NC(=O)N2CCOCC2C)cc1 (stereo not given) the result was Pks13 thioesterase: -30.44%; Toxoplasma: 4.675%; CoaBC: -2.893%; ClpP1P2: 2.035%; Leishmania in macrophages: 21.55%; MtTrpRS: 1.257%.

The first 3 entries again:

| SMILES | Pks13 thioesterase | Toxoplasma | CoaBC | ClpP1P2 | Leishmania in macrophages | MtTrpRS |
|---|---|---|---|---|---|---|
| `[H][C@@]12CCN(C3CCOCC3)C[C@]1([H])O[C@H](C(=O)N1CCOCC1)C2` | - | 8.244 | - | - | 9.764 | - |
| `CC(C)N1CCC(C(=O)N2CCc3c(nc(CC4CC4)[nH]c3=O)C2)CC1` | -13.85 | 10.18 | 5.291 and 20.78 | -5.843 | 17.61 | 2.832 |
| `CCc1nc(-c2cncnc2C2CCCNC2)no1` (stereo not given) | 3.806 | - | -5.672 | 4.94 | - | -0.3958 |